B1: il2ra_site2_3nfp_sap_17_mot_HHH_b2_03377_000000137_0001_25_41_H_._HHH_b2_03517_0001_0000700035_0000001_0_0001 (protein)
chain: DLSVRLLRAHALVLGDEELERVIELLAERIKEGDPEARELVLELMQLLMNGDPEEVERLAREILK
B2: il2ra_site2_2erj_sap_19_mot_HHH_b2_08364_000000146_0001_1_19_H_._HHH_b1_02871_0001_0000100001_0000001_0_0001_1 (protein)
chain: SSSSNEKLHELFRLAAELLELVHRGDEEQFEKVFRELEELIEELNSENAEEVLEWLRRHLHSSSS
B3: il2ra_site2_3nfp_normal_mot_HHH_b1_04338_af2_000000107_0001_41_56_H_._HHH_b1_05730_0001_0000100002_0000001_0 (protein)
chain: SSSSSSDVEDLAEALLRRLEKKNPELFEELERLLEELKEEGDPELQLELYAFIAEVLLSSSSSSS
B4: il2ra_site2_2erj_sap_23_mot_HHH_b2_01204_af2_000000051_0001_19_34_H_._HHH_b2_00676_0001_0000100004_0000001_1_0001 (protein)
chain: SSSSSTEEEIEELIRQAEELLRRGDPEEALKLISRAFELAYQLGDPELAARLIELAARIISSSSS
B5: il2ra_site2_2erj_normal_mot_HHH_b2_01353_af2_000000049_0001_23_39_H_._HHH_b1_04436_af2_0001_0000200013_0000001_0 (protein)
chain: SSSSDEIEELLEKAKELLEKGNPEEAEEVLRRASVAAFENRDHEAFAEIAELLRIVAELEASSSS
B6: il2ra_site2_3nfp_sap_16_mot_HHH_b1_07617_000000090_0001_22_38_H_._HHH_b2_07140_0001_0000300012_0000001_0_0001 (protein)
chain: SSSDLEERFEEIYREIEELLKEGDPWKVAQLLLELSKLALEIGDPELARRVLELYKKLKEISSSS
B7: il2ra_site2_3nfp_normal_mot_HHH_b1_00660_af2_000000090_0001_40_57_H_._ems_3hM_3525_af2_0001_0000400016_0000001_1_af2pred_0001_1_af2pred_swapped (protein)
chain: SSSAEEIRKIIAKLILIAAERRDHELFAFVVEVFLEVEELLQKGDEEEAKKVAEEAEEEVRKKSS
B8: il2ra_site2_3nfp_normal_mot_HHH_b2_07083_af2_000000083_0001_42_56_H_._936cac0bedbaeeb6fc45f7bbb6d160e8_0001_0001_0000100007_0000001_0 (protein)
chain: NLEVFELIRELRKRDEELAAALFAVVADLRFKGDPRLEELLREAIELIEEGNPEEAKRVLHEALR
B9: il2ra_site2_3nfp_sap_22_mot_HHH_b1_03745_000000053_0001_41_56_H_._HHH_b1_00387_af2_0001_0000100001_0000001_0_0001 (protein)
chain: SSSSSDEADELLIRAYEALLNGDPEKAEELLEQAEEKARELGDPHLLRQIEEALKTLKNGSSSSS
B10: il2ra_site1_1z92_sap_30_mot_38696baa2df05fb6b55d0053d3ac79c4_0001_1_af2_000000035_0001_34_48_H_._10e1666ff09cdf73719c8a1cce04dea0_0001_0001_0000200022_0000001_0 … (protein)
chain: SSSSNSEERVEFVLREARMARENGNPRAVEWALELAKSLARSRNDEELQKEVEELEKELLSSSSS
B11: il2ra_site2_2erj_normal_mot_HHH_b1_07806_000000211_0001_42_56_H_._HHH_b2_00207_0001_0000400018_0000001_0_af2pred_0001_1_af2pred_swapped (protein)
chain: SSSSSDEEEYRREVEELLEEAKRIPDIREALKLLEEASRVAAELGDDELFHLVDRVARELSSSSS
B12: il2ra_site2_3nfp_normal_mot_HHH_b2_04451_000000238_0001_21_37_H_._HHH_b2_06571_af2_0001_0000400009_0000001_0 (protein)
chain: SSSSDEEERLEELIEELERLEEKGDRVEAFEVLLELSKLALEVGDEEAVRFVLRYFERLQSSSSS
B13: il2ra_site1_2b5i_sap_14_mot_HHH_b2_07442_af2_000000069_0001_1_16_H_._HHH_b2_06599_0001_0000300022_0000001_1_0001_af2pred_dldesign_0_af2pred (protein)
chain: SSSSSSSDPLALIEEAKRLYAEGKRREALEALDRAAKLADAAGDEELEDEIEELAKLISSSSSSS
B14: il2ra_site1_3nfp_sap_10_mot_HHH_b1_07180_af2_000000260_0001_1_19_H_._HHH_b2_01298_0001_0000300012_0000001_0_0001 (protein)
chain: THRRHVAKMIERMAKKLGVPSVEVSVHNGTVHVTLEGTDEAAREAAKAAEHAAEWAGVEFEITFE
B15: il2ra_site2_3nfp_normal_mot_HHH_b2_06150_000000217_0001_39_53_H_._HHH_b2_05833_0001_0000200009_0000001_0_af2pred_0001_af2pred (protein)
chain: SSSDAEERVRELIEEAKELAERGNPEEAREVLAEAAELAWELGDTELAMEIAELLLRVEELSSSS
B16: il2ra_site1_3nfp_normal_mot_eb5a5eebac1e5153f932cc6c3f4b2787_0001_af2_000000065_0001_18_33_H_._31bff7180b20e3ed47766ceefd9934be_0001_af2_0001_0000100001_0000001 … (protein)
chain: DEEEELAELIRQAVEKNDPELLKRVAEELLRKLGDPKEAIRLFEELLEKAGLSPREKYLALKLST
B17: il2ra_site2_2erj_normal_mot_HHH_b1_06554_af2_000000190_0001_44_57_H_._HHH_b2_07703_0001_0000100004_0000001_0_af2pred_0001_af2pred_1_swapped (protein)
chain: SSSSSSSIEERVKELLEEAEKVENLEEAEEILDEAFELALQLGNPELLKLIIKVAARRSSSSSSS
B18: il2ra_site1_3nfp_sap_11_mot_40ac32ce855e0fd9c7bcc7eb247393e9_0001_000000113_0001_1_14_H_._HHH_b2_01948_af2_0001_0000100007_0000001_0_0001_af2pred_0001_af2pred (protein)
chain: SSDEYFEELVREVEELAEEKNDEEVRELAERARRLYREAKENRDHRAAHEAIRIVAKLRMEVTSS
B19: il2ra_site2_2erj_normal_mot_HHH_b1_00071_af2_000000225_0001_40_56_H_._HHH_b2_07268_0001_0000500020_0000001_0_af2pred_0001_af2pred (protein)
chain: SSSSTEALEEAARVLLRLSELLANGNPEEAEELVEEAEQRLEELGNPLLAEDVREYYERAKSSSS

This is one part of the list. Where only a bound is given, the exact number is not on record here.

As usually defined, the apparent Kd is the concentration giving half-maximal binding under the conditions of the assay.

The target in this experiment is il2ra, P01589. Put plainly: yeast display titration.
With B1, the “apparent Kd” value is “inactive: no binding seen”.

In the case of B2, the “apparent Kd” value was “inactive: no binding seen”.

For the molecule B3, the “apparent Kd” value was “inactive: no binding seen”. Consider B4, for which the “apparent Kd” value is “inactive: no binding seen”.

With B5, the “apparent Kd” value was “inactive: no binding seen”. Take B6: the “apparent Kd” value is “inactive: no binding seen”.

Take B7: the “apparent Kd” value is “inactive: no binding seen”. Then B8, with “inactive: no binding seen”. Take B9: the “apparent Kd” value was “inactive: no binding seen”. Then B10, with “inactive: no binding seen”; and B11, with “inactive: no binding seen”. In the case of B12, the “apparent Kd” value was “inactive: no binding seen”. Then B13, with “inactive: no binding seen”; and B14, with inactive: > 492 nM.

Regarding B15, the “apparent Kd” value is “inactive: no binding seen”. Then B16, with “inactive: no binding seen”.

As for B17, the “apparent Kd” value was “inactive: no binding seen”. Then B18, with “inactive: no binding seen”; and B19, with “inactive: no binding seen”.

The record behind these values is article PMC10163288.
